{"sequences": {"note": "Chains of the proteins cited; added tags and fusions are not shown.", "UniProt Q03164, whole entry, looked up": "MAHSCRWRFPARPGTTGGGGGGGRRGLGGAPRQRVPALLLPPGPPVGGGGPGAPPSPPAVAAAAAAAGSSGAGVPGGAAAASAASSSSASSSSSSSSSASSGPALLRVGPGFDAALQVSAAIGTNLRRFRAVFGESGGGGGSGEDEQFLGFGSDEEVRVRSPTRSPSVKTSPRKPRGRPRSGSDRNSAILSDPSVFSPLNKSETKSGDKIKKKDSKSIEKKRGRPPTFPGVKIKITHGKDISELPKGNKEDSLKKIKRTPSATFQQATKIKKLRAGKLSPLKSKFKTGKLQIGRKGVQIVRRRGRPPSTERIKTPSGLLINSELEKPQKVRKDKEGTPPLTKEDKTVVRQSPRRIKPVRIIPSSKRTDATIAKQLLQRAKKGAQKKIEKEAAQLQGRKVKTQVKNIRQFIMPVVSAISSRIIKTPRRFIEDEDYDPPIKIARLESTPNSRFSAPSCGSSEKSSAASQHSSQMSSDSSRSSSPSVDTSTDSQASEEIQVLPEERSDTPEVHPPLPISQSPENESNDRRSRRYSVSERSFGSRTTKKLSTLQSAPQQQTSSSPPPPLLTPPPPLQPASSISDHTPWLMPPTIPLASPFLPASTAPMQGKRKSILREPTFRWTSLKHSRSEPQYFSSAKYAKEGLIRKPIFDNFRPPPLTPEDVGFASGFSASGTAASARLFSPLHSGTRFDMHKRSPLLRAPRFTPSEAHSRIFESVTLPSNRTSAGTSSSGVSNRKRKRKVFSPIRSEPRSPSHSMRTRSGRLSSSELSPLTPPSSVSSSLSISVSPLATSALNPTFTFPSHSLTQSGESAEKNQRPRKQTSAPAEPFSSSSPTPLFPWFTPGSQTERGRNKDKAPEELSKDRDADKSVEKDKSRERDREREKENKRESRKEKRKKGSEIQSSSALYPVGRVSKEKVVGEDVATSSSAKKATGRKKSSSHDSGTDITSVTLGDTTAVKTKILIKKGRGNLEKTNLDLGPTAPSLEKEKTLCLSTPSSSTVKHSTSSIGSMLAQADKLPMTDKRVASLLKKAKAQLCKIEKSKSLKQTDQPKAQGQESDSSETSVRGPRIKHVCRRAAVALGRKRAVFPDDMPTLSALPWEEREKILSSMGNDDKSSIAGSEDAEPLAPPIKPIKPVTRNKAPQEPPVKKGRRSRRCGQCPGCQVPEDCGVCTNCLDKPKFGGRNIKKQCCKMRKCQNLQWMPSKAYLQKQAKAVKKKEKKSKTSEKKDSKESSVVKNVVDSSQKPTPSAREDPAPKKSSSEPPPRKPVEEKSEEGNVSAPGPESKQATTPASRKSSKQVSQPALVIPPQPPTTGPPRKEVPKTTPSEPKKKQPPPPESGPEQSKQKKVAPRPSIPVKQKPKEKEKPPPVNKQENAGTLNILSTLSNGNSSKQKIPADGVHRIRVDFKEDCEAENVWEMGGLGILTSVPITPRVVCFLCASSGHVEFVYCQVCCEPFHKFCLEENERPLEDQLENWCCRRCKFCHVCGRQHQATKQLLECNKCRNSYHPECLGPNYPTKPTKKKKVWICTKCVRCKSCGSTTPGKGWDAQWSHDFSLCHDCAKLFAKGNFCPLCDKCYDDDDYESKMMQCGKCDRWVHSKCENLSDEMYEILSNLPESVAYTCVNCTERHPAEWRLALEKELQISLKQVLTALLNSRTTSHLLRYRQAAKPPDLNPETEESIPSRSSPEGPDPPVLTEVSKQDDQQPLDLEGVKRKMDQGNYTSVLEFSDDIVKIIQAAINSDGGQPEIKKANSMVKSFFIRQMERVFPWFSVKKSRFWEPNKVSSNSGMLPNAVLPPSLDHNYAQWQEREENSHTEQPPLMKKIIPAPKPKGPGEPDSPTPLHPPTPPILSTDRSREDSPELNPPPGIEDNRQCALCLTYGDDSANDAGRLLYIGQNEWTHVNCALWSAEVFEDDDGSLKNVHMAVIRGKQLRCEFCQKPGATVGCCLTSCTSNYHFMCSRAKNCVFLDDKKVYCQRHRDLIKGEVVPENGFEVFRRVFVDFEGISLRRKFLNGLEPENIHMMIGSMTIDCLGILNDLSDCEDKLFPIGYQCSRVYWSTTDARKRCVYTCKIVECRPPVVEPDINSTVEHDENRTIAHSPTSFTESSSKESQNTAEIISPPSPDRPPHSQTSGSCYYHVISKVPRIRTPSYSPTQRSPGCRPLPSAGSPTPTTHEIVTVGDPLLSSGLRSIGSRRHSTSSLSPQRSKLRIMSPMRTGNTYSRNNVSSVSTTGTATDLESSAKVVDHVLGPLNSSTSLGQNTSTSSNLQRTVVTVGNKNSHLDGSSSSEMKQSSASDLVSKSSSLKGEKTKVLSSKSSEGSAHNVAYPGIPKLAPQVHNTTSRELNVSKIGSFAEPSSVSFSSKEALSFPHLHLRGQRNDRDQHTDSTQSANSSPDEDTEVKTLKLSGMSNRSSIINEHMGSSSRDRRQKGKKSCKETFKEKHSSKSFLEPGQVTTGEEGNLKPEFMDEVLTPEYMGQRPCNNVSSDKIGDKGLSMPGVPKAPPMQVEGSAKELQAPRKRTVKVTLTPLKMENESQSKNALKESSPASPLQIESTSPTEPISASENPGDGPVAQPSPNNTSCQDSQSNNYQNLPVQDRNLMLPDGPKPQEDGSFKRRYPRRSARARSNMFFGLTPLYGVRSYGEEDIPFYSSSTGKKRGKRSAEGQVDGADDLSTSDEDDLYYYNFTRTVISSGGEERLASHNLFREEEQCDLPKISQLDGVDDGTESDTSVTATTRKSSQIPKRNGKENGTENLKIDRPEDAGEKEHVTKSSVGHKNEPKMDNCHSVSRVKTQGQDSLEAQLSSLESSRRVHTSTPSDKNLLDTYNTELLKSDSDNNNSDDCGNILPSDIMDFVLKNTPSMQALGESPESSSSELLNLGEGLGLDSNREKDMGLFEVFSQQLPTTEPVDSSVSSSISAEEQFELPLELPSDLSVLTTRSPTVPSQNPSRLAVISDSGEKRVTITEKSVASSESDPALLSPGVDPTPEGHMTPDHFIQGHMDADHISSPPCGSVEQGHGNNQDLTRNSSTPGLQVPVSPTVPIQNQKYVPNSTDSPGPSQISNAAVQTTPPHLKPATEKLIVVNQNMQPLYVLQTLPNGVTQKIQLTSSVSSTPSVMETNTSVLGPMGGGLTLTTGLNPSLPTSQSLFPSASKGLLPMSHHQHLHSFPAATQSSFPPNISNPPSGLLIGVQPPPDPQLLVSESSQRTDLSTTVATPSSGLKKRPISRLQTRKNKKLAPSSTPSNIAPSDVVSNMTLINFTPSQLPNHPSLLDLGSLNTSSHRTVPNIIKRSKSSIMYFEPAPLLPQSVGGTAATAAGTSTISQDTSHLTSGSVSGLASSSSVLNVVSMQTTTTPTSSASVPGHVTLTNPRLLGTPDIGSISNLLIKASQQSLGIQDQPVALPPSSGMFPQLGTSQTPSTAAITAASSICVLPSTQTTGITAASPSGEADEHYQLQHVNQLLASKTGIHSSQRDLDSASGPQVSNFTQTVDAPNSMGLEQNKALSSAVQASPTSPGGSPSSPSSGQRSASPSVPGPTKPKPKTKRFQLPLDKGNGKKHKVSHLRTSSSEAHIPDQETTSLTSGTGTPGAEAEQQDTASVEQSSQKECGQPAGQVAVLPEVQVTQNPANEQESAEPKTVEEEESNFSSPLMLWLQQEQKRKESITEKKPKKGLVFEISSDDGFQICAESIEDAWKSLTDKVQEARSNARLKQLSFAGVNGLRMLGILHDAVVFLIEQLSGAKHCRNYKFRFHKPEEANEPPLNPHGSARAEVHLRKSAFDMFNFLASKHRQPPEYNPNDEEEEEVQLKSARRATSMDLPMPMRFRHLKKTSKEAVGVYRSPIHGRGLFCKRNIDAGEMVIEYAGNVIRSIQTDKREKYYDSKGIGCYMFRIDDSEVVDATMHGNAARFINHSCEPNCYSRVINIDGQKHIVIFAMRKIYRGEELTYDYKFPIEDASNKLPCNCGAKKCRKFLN"}, "source": "PubChem BioAssay AID2662", "about": "(National Center for Advancing Translational Sciences (NCATS), 2010)", "note": "The campaign covered roughly 290,000 compounds. About 110 (0.038%) were called active. The shares of active, inactive and inconclusive entries below differ from those in the screen. Calls come from the whole dose curve; as a rule, active = well fitted inhibition curve with a large enough effect in the polarisation, with a control signal flat (not every such curve was filed as active); inconclusive = small, poorly fitted or top-dose-only effect, or effect the other way, or a change in a side signal; inactive = no such curve, though single readings can be large or run the other way; the % refers to the polarisation. Where the call is inconclusive, the potency comes from a doubtful curve fit. A note “side channel” means that the fit belongs to a control or component signal, not to the main read-out. Potency is the fitted concentration of half-maximal effect.", "data": [{"target": "Histone-lysine N-methyltransferase 2A (Homo sapiens) (UniProt Q03164)", "assay": "qHTS Fluorescence Polarization Assay for Inhibitors of MLL CXXC domain - DNA interaction", "conditions": "MLL-CXXC / FITC-HOXA9 DNA fluorescence polarization; activity change, negative = inhibition: at 115 µM (top of the series)", "how_it_was_run": "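Purified MLL-CXXC (added from a 7 uM solution) was preincubated 5 min at ambient with pinned compounds in 50 mM Tris-HCl pH 7.5, 50 mM NaCl, 1 mM DTT, 0.05% BSA. Fluorescein-labeled HOX-A9 DNA (50 nM solution) followed, 30 min, then polarization read.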", "values": [{"molecule": "COc1cc(OC)c(NS(=O)(=O)c2c(C)[nH]c(=O)[nH]c2=O)cc1Cl", "Potency": "inconclusive: 63.1 µM [inhibitor, single point]"}, {"molecule": "O=[N+]([O-])c1ccc(N/N=C/c2cccc(O)c2O)c(S(=O)(=O)N2CCOCC2)c1", "activity change, negative = inhibition": "inactive: -2.97%"}, {"molecule": "CCOC(=O)c1ccc(NC(=O)Cc2coc3cc4c(cc23)CCC4)cc1", "Potency": "inconclusive: 89.1 µM [inhibitor, single point]"}, {"molecule": "O=S(=O)(N/N=C\\C=C\\c1ccccc1)c1ccc(Cl)cc1", "Potency": "inconclusive: 12.6 µM [inhibitor, full curve, poor fit]"}, {"molecule": "O=C(CCC(=O)OCC(=O)c1ccc(-c2ccccc2)cc1)Nc1cccc(Cl)c1", "activity change, negative = inhibition": "inactive: 19.3%"}, {"molecule": "CC(Sc1ccc([N+](=O)[O-])cn1)C(=O)Nc1nccs1", "note": "(centres undefined)", "activity change, negative = inhibition": "inactive: -5.38%"}, {"molecule": "CCOC(=O)/C(C#N)=C(C)/C=C1\\Sc2ccccc2N1CC", "Potency": "inconclusive: 28.2 µM [fluorescent, side channel, partial curve]"}, {"molecule": "CCN(CC)C(=O)c1cc(-c2ccccc2OC)on1", "activity change, negative = inhibition": "inactive: -2.1%"}, {"molecule": "O=C1CCNc2c(Cl)cc(Cl)cc21", "Potency": "inconclusive: 35.5 µM [inhibitor, single point]"}, {"molecule": "COc1cccc(CN2CCNC(=O)C2CC(=O)NC2CCCCCCC2)c1", "note": "(centres undefined)", "Potency": "inconclusive: 50.1 µM [fluorescent, side channel, single point]"}, {"molecule": "O=C(O)CCc1ccc(-c2ccc(F)cc2)n1CC1CCCO1", "note": "(centres undefined)", "activity change, negative = inhibition": "inactive: -5.09%"}, {"molecule": "O=c1c2[nH]cnc2n(-c2ccc(F)cc2)c(=O)n1Cc1ccccc1", "Potency": "inconclusive: 14.1 µM [fluorescent, side channel, single point]"}, {"molecule": "COc1ccc(C(=O)NCCc2cc3ccc(C)c(C)c3[nH]c2=O)cc1OC", "activity change, negative = inhibition": "inactive: 5.3%"}, {"molecule": "COc1nc(-c2ccccc2)cc(C(F)(F)F)n1", "activity change, negative = inhibition": "inactive: -1.26%"}, {"molecule": "CS(=O)(=O)c1nc(-c2ccccc2)cc(-c2ccccc2)c1C#N", "Potency": "inconclusive: 8.91 µM [quencher, side channel, partial curve]"}, {"molecule": "O=C(Nc1ccc(Nc2ccncc2)cc1)c1ccc(Nc2ccnc3ccc([N+](=O)[O-])cc23)cc1[N+](=O)[O-]", "Potency": "inconclusive: 17.8 µM [quencher, side channel, partial curve]"}, {"molecule": "Cc1ccc(SCC(=O)NCC(C)C)cc1", "activity change, negative = inhibition": "inactive: -5.1%"}, {"molecule": "CC(C)c1ccc(C2C(C#N)=C(N)N3C(=C2C#N)Sc2ccccc23)cc1", "note": "(centres undefined)", "Potency": "inconclusive: 22.4 µM [fluorescent, side channel, partial curve]"}, {"molecule": "CCN(CC)C(=O)CC(c1cc(OC)c(OC)c(OC)c1)c1c(OC)cc(OC)c2c(-c3ccccc3)cc(=O)oc12", "note": "(centres undefined)", "activity change, negative = inhibition": "inactive: 1%"}, {"molecule": "COc1ccc(CCNCC(O)COc2ccc(Cl)cc2)cc1OC", "note": "(centres undefined)", "Potency": "inconclusive: 3.55 µM [quencher, side channel, partial curve]"}, {"molecule": "Cc1cc(Nc2ccccc2)n2nc(C)c(-c3ccccc3)c2n1", "activity change, negative = inhibition": "inactive: -17.6%"}, {"molecule": "Cc1c(OC(C)C(=O)NCc2ccncc2)ccc2c3c(c(=O)oc12)CCCC3", "note": "(centres undefined)", "activity change, negative = inhibition": "inactive: 56.1%"}, {"molecule": "O=C1CC(c2ccccc2)n2nc(NC(=O)c3ccccc3)nc2N1", "note": "(centres undefined)", "activity change, negative = inhibition": "inactive: 2.62%"}, {"molecule": "Cc1cc(NC(=O)/C(C#N)=C/c2ccc(-c3ccc(SC(F)F)cc3)o2)n(-c2ccccc2)n1", "Potency": "inconclusive: 31.6 µM [fluorescent, side channel, partial curve]"}, {"molecule": "O=C(CSc1nc2c(cnn2-c2ccccc2)c(=O)[nH]1)NC1CCS(=O)(=O)C1", "note": "(centres undefined)", "Potency": "inconclusive: 31.6 µM [inhibitor, single point]"}, {"molecule": "C=CCNc1cc(N2CCCC2)ccc1[N+](=O)[O-]", "activity change, negative = inhibition": "inconclusive: -33.2% [phenotype inactive]"}, {"molecule": "COc1ncnc2c1N=C1CC(C)(C)CC(N)=C1S2", "Potency": "inconclusive: 35.5 µM [fluorescent, side channel, single point]"}, {"molecule": "CN(C)c1ccc(Cl)cc1N", "Potency": "inconclusive: 31.6 µM [fluorescent, side channel, partial curve]"}, {"molecule": "Cc1nnc(NC(=O)c2sc3nc(-c4cccs4)cc(C(F)(F)F)c3c2N)s1", "activity change, negative = inhibition": "inactive: -0.759%"}, {"molecule": "COc1ccc(CN2C(=O)CSCC2=O)cc1OC", "Potency": "inconclusive: 14.1 µM [fluorescent, side channel, single point]"}, {"molecule": "C/C(=N/O)c1ccc2c(c1)OCCOCCOc1cc(/C(C)=N/O)ccc1OCCOCCO2", "Potency": "inconclusive: 89.1 µM [quencher, side channel, single point]"}, {"molecule": "COc1ccc(C(=O)Nc2ccccc2C(=O)N/N=C/c2cccc3ccccc23)cc1", "activity change, negative = inhibition": "inactive: 30.6%"}, {"molecule": "O=[N+]([O-])c1ccc(/C=N/Nc2ccccn2)cc1", "Potency": "inconclusive: 1.26 µM [fluorescent, side channel, partial curve, poor fit]"}, {"molecule": "O=C(O)c1cccc(NC(=O)c2ccc3c(c2)C(=O)N(CC2CCCO2)C3=O)c1", "note": "(centres undefined)", "activity change, negative = inhibition": "inactive: -19.8%"}, {"molecule": "Cc1cccc(C(=O)N2CCN(Cc3nc4sc5c(c4c(=O)[nH]3)CCCC5)CC2)c1", "Potency": "inconclusive: 70.8 µM [fluorescent, side channel, partial curve]"}, {"molecule": "CN(C)S(=O)(=O)c1ccc(NC(=O)c2ccc3ncsc3c2)cc1", "activity change, negative = inhibition": "inactive: -7.45%"}, {"molecule": "Cc1ccc(C2C(C#N)=C(N)SC(N)=C2C#N)c(C)c1", "Potency": "inconclusive: 39.8 µM [fluorescent, partial curve]"}, {"molecule": "CCCCC(=O)Nc1nnc(/C=C/c2ccc(OC)cc2)s1", "activity change, negative = inhibition": "inactive: 17.5%"}, {"molecule": "Cc1cccc(-n2c(O)c(C=Nc3ccc4c(c3)OCO4)c3ccccc3c2=O)n1", "Potency": "inconclusive: 70.8 µM [fluorescent, side channel, single point]"}, {"molecule": "C=CCc1c(C)nc(C)nc1N/N=C/c1ccccc1O", "Potency": "inconclusive: 4.47 µM [quencher, side channel, partial curve, poor fit]"}, {"molecule": "Cc1nc2c(C)cccc2cc1C(=O)N/N=C/c1cccnc1", "Potency": "inconclusive: 39.8 µM [fluorescent, side channel, single point]"}, {"molecule": "O=C(Cn1c2[n+](c3ccccc31)CC(O)CS2)c1ccccc1", "note": "(centres undefined)", "activity change, negative = inhibition": "inactive: 9.15%"}, {"molecule": "O=C1CCCc2[nH]c(-c3ccccc3)nc21", "Potency": "inconclusive: 10 µM [inhibitor, single point]"}, {"molecule": "COc1ccc(COC(=O)N/C=C/c2ccco2)cc1", "Potency": "inconclusive: 15.8 µM [fluorescent, side channel, partial curve]"}]}]}
